## Screening data, single-dose tests

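Whole-cell growth test on Mycobacterium tuberculosis, read after 4 days in a medium based on cholesterol and the lipid DPPC; the read-out is not stated. Concentration: 50 µM. The record gives no direction; compounds that gave an IC50 in retests scored well above the rest, so higher reads as more growth inhibition. Size under these conditions: about 69,000 compounds, about 370 of them at 50% or above in at least one test.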

Results are given as percent effect. How 0% and 100% were set is not recorded. Most values in the screen are low, and negative values occur. This is an unselected part of the compounds tested. Two or more numbers in one place are separate tests of the same structure; such repeats can differ widely.

* CC(C)N1Cc2cccc(NCC(=O)N(C)C3CCCCC3)c2C1 : -21.35%
* CN(C)c1nccc(C2CCCN2S(=O)(=O)c2cn(C)cn2)n1 (stereo not drawn) : 24.11%
* Cc1cnc(NC(=O)N2CCCC2)s1 : -4.37%
* Cc1cc(NC(=O)c2nc(N3CCCC3)ncc2Cl)nc(C(C)C)n1 : -14.83% and -9.768%
* Cc1cc2nc(-c3ccccc3)cc(NCC3CCS(=O)(=O)C3)n2n1 (stereo not drawn) : -33.37%
* [H][C@@]12COC[C@]1(c1nc(C)no1)CN(C(=O)Cc1ccsc1)C2 : 11.25%
* NC(=O)CN1CCCC1c1cncc(Oc2ccc(Cl)cc2)n1 (stereo not drawn) : 6.044%
* O=C1CCNc2cc3c(cc2CN1CC1CC1)OCO3 : -6.666%
* CN(CC(=O)NC(Cc1ccsc1)c1cccnc1)Cc1cccnc1.Cl (stereo not drawn) : -19.06% and -0.6455%
* COc1cc(CNC(=O)NCCCF)cc(Br)c1OC : -8.831%
* Nc1nc(CN2CCOC(Cn3cccn3)C2)nc2ccccc12 (stereo not drawn) : -5.12%
* N#CCCN(Cc1ccccn1)C(=O)Nc1cccc(F)c1 : 18.88%
* Cc1cc(CN(C)C(=O)c2ccc(C(F)(F)F)nc2)no1 : 22.99%
* [H][C@@]12CN(C(=O)COC)C[C@]1([H])OCCN2Cc1c(C)noc1C : -19.74%
* Cc1nc(C2CCCN2CC(=O)NCCc2ccsc2)no1 (stereo not drawn) : -3.763%
* COc1cccc(CN2CC(O)CN(C(=O)C(C)(C)C)CC2=O)c1OC (stereo not drawn) : -47.71%
* Cc1cc(CN(C)C(=O)C2CCC(=O)N(CC3CCCCC3)C2)n[nH]1 (stereo not drawn) : 8.748% and -6.107%
* Cc1cc(C)n(C2CCCN(C(=O)CCNS(C)(=O)=O)C2)n1 (stereo not drawn) : -12.94%
* COc1cccc(S(=O)(=O)CCN2CCCN(C(C)=O)CC2)c1 : -3.663%
* O=C(Cc1ccccc1F)NCC1CCN(CCN2CCOCC2)C1 (stereo not drawn) : 0.9297%
* CCOc1cccc2c1OCC(C(=O)NS(=O)(=O)c1cccs1)=C2 : 0.03654%
* CCOc1c(Br)cc(CNC(C)c2nnc3n2CCC3)cc1OC (stereo not drawn) : -4.727%
* CN(CC(=O)N1CCC(Oc2ccc(C(F)(F)F)cn2)CC1)S(C)(=O)=O : -16.39%
* CNC(=O)CN1CCc2c(CNc3nccs3)n[nH]c2C1.O=C(O)C(F)(F)F : -14.7%
* Cc1cnc(NC(=O)c2csc(NC3CCCC3)n2)s1 : 40.51%
* Fc1ccc2[nH]c3c(c2c1)CCN1C(c2ccncc2)N2CCC31CC2 (stereo not drawn) : 2.198%
* COCCN(Cc1noc(-c2ccc(OC)cc2)n1)C1CC1 : 24.32%
* CN(C)C(=O)c1ccc(OC2CCCC2)cc1 : 5.55%
* CN(C)CC1CSCCCN1C(=O)c1ccsc1 (stereo not drawn) : -12.96%
* CCOc1cc(Cl)c(CN2CCC3(CCCNC3=O)C2)cc1OC (stereo not drawn) : 8.128%
* CCc1ccc(NC(=O)N2Cc3c(CN(C)C)nn(C)c3C2)cc1.O=C(O)C(F)(F)F : -12.8%
* COCCC(=O)Nc1ccnn1-c1ccccc1 : -18.2%
* COCCN1CCC(NC(=O)C/C=C/c2ccc(C(C)C)cc2)CC1 : 21.65%
* CSC(C)(C)CNC(=O)NCc1cccc(-n2ccnc2)c1 : -4.942%
* OC(CN1CCOCC1)c1ccc(OC(F)(F)F)cc1 (stereo not drawn) : 13.13%
* CN(C)c1ccc(C(=O)NCc2ccc(N3CCOCC3)cc2)cn1 : -9.332%
* O=C(Cn1cc(-n2cccc2)cn1)NCC1CCC1 : 13.39%
* CCOC1CCCN(C(=O)c2[nH]nc(C3CC3)c2Br)C1 (stereo not drawn) : -5.152%
* N#Cc1cccnc1NCCNC(=O)N1CCCC(C(F)(F)F)C1 (stereo not drawn) : 12.51%
* O=C(NC1CCCOc2cc(Cl)ccc21)c1ccc(=O)[nH]n1 (stereo not drawn) : -2.286%
* Cc1nn(C)cc1-c1ccnc(N(C)Cc2noc(C(C)C)n2)n1 : -11.79%
* COC(=O)c1cccc(S(=O)(=O)NC(=O)COC2CCCC2)c1 : -15.22%
* CN(C)c1nc2c(c(NCc3nnc4n3CCCCC4)n1)CCNC2 : -8.383%
* CC(=O)N1CCCN(Cc2cc(F)cc(Br)c2)CC1 : -3.405%
* c1cncc(COCC2CN(Cc3ccco3)Cc3nccn3C2)c1 (stereo not drawn) : -7.458% and -2.095%
* [H][C@@]12CCN(C(=O)c3ccccc3)[C@]1([H])C(=O)N(Cc1ccccc1)C(=O)N2 : 14.03%
* COCCN1CCCn2cnc(CNC(=O)N(C)C)c2C1.O=C(O)C(F)(F)F.O=C(O)C(F)(F)F : 5.383%
* Cc1nc2n(n1)CC(NCc1ccnc(-c3ccccc3)n1)CC2 (stereo not drawn) : 0.6953%

3 of the entries, repeated:

{"smiles": "COCCN1CCCn2cnc(CNC(=O)N(C)C)c2C1.O=C(O)C(F)(F)F.O=C(O)C(F)(F)F", "effect": 5.383}
{"smiles": "N#Cc1cccnc1NCCNC(=O)N1CCCC(C(F)(F)F)C1", "stereo": "stereo not drawn", "effect": 12.51}
{"smiles": "Cc1cc(C)n(C2CCCN(C(=O)CCNS(C)(=O)=O)C2)n1", "stereo": "stereo not drawn", "effect": -12.94}

Measurements from “University of Dundee, Small-Polar-MMV Screening Library” (2021), ChEMBL document CHEMBL3988442.